Values of other authors in patent US20250295156A1, “LOADED GRANULES, THEIR PROCESS OF PRODUCTION AND THEIR USES” (Evie SA, priority 2019, published 2025).

Settings: crystalline powder

SMILES: C=C(C)[C@@H]1CCC(C)=C[C@H]1c1c(O)cc(CCCCC)cc1O [isolates]
- solubility in oil (oil): soluble in oil
- solubility in water (water): not in water
